Measurements as given in the supplement of paper PMC10849652.
This is one part of the list.

By UniProt entry, the sequences of proteins in these tests, tags left out. Where a name states a change or a piece, a line headed by the entry shows the natural chain unless it says otherwise.
UniProt Q86VI4: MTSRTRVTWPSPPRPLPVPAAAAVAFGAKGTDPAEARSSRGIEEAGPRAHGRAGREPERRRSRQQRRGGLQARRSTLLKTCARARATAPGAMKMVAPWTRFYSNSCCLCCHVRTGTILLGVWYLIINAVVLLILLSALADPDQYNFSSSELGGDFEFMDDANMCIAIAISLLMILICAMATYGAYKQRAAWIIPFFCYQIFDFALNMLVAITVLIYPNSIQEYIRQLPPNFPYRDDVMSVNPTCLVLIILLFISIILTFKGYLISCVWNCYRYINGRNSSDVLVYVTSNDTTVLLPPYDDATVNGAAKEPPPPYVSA
UniProt O75164: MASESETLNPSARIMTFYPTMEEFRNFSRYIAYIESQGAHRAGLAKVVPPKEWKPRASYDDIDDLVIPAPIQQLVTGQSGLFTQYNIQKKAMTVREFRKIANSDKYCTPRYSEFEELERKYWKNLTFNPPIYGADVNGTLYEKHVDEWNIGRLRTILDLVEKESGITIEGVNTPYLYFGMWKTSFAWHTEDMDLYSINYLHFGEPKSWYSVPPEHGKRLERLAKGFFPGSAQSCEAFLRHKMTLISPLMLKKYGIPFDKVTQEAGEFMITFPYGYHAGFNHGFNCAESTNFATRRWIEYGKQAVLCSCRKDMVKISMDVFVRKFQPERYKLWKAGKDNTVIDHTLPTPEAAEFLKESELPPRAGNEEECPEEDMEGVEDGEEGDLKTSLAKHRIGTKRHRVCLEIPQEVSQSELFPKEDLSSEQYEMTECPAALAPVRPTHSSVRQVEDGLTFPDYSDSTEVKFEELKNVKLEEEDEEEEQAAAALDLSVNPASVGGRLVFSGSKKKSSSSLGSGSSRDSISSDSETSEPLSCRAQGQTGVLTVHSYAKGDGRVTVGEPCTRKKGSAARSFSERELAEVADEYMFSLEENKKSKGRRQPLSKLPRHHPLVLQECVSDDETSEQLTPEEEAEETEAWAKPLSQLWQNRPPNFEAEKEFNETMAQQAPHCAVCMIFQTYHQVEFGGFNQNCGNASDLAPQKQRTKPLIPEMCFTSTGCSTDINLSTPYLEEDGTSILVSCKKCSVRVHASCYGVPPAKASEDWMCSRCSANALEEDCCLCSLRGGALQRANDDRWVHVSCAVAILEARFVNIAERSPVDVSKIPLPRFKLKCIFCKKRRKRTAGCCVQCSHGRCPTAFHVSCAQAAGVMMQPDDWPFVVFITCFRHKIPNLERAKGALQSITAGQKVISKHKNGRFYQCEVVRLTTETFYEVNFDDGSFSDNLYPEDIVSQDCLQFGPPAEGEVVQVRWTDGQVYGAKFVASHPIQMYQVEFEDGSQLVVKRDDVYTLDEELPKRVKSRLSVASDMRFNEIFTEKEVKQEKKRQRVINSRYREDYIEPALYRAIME
UniProt P13473: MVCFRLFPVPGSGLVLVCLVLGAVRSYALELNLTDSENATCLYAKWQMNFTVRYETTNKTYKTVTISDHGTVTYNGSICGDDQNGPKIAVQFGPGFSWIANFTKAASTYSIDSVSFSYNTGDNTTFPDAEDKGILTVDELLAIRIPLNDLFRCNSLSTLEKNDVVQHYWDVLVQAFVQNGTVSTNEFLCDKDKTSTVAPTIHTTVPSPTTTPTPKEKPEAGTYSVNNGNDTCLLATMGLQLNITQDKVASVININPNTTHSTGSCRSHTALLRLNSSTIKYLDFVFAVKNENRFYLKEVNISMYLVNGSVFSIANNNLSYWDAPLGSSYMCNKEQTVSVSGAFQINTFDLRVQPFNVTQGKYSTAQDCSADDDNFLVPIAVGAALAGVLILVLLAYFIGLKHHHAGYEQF
UniProt Q9Y2U9: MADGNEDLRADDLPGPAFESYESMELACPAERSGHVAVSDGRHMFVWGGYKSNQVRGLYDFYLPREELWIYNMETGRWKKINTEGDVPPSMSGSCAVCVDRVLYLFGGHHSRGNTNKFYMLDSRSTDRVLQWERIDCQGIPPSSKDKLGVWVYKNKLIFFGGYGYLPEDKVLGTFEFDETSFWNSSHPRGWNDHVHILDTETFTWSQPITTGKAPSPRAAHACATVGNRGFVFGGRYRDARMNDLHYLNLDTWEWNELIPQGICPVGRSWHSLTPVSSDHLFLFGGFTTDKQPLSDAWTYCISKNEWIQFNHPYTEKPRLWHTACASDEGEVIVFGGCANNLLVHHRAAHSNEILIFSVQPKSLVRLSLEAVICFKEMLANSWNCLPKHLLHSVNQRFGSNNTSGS
UniProt Q96L93: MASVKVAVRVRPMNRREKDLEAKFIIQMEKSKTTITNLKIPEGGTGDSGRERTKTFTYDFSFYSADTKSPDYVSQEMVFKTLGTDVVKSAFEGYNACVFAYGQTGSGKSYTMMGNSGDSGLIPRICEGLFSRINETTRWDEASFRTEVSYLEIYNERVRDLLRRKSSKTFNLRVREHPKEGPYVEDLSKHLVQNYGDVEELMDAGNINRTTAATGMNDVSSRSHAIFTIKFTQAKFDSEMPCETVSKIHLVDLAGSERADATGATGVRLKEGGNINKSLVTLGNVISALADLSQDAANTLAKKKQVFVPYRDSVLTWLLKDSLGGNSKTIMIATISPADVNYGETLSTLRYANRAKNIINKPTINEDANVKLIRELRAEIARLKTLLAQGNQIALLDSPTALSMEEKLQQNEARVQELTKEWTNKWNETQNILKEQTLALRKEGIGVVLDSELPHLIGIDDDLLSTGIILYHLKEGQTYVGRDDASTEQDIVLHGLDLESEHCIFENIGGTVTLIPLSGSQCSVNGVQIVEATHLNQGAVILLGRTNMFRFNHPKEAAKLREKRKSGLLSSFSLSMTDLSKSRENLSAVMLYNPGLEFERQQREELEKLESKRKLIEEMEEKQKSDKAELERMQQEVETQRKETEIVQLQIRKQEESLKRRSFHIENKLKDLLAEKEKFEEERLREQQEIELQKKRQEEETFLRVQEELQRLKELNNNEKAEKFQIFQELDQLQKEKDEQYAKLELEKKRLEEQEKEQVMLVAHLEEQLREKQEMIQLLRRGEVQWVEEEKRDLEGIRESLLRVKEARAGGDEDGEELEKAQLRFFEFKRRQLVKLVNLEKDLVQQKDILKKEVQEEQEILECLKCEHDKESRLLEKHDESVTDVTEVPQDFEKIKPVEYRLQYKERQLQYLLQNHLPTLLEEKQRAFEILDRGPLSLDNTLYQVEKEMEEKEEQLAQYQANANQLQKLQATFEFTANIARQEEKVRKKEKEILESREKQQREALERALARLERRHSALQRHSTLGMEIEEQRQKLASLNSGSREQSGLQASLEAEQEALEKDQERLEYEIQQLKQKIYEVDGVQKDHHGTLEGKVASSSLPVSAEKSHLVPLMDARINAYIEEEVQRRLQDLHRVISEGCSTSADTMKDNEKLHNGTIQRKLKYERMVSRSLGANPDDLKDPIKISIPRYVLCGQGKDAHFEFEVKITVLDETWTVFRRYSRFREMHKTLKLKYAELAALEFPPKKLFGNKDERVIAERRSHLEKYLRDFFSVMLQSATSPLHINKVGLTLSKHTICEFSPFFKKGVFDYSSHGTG
UniProt Q9NVR0: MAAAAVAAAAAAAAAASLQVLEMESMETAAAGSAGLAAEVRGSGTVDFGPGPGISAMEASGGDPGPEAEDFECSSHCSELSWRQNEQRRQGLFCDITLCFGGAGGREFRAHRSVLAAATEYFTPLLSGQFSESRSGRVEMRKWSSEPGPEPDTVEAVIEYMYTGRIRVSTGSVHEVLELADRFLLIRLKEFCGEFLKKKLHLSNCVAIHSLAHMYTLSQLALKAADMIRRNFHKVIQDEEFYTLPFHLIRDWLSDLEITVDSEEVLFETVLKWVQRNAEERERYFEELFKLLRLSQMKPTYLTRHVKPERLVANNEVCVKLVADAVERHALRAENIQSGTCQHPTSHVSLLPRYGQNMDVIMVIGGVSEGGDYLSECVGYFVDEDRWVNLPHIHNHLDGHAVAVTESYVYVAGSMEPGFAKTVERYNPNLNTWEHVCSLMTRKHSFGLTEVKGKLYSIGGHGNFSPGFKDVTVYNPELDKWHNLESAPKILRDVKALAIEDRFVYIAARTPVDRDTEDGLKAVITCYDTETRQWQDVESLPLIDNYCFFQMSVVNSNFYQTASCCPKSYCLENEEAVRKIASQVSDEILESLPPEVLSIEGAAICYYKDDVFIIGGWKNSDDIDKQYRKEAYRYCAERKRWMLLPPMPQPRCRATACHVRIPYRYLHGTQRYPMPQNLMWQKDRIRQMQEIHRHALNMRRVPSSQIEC
UniProt Q8IZD2: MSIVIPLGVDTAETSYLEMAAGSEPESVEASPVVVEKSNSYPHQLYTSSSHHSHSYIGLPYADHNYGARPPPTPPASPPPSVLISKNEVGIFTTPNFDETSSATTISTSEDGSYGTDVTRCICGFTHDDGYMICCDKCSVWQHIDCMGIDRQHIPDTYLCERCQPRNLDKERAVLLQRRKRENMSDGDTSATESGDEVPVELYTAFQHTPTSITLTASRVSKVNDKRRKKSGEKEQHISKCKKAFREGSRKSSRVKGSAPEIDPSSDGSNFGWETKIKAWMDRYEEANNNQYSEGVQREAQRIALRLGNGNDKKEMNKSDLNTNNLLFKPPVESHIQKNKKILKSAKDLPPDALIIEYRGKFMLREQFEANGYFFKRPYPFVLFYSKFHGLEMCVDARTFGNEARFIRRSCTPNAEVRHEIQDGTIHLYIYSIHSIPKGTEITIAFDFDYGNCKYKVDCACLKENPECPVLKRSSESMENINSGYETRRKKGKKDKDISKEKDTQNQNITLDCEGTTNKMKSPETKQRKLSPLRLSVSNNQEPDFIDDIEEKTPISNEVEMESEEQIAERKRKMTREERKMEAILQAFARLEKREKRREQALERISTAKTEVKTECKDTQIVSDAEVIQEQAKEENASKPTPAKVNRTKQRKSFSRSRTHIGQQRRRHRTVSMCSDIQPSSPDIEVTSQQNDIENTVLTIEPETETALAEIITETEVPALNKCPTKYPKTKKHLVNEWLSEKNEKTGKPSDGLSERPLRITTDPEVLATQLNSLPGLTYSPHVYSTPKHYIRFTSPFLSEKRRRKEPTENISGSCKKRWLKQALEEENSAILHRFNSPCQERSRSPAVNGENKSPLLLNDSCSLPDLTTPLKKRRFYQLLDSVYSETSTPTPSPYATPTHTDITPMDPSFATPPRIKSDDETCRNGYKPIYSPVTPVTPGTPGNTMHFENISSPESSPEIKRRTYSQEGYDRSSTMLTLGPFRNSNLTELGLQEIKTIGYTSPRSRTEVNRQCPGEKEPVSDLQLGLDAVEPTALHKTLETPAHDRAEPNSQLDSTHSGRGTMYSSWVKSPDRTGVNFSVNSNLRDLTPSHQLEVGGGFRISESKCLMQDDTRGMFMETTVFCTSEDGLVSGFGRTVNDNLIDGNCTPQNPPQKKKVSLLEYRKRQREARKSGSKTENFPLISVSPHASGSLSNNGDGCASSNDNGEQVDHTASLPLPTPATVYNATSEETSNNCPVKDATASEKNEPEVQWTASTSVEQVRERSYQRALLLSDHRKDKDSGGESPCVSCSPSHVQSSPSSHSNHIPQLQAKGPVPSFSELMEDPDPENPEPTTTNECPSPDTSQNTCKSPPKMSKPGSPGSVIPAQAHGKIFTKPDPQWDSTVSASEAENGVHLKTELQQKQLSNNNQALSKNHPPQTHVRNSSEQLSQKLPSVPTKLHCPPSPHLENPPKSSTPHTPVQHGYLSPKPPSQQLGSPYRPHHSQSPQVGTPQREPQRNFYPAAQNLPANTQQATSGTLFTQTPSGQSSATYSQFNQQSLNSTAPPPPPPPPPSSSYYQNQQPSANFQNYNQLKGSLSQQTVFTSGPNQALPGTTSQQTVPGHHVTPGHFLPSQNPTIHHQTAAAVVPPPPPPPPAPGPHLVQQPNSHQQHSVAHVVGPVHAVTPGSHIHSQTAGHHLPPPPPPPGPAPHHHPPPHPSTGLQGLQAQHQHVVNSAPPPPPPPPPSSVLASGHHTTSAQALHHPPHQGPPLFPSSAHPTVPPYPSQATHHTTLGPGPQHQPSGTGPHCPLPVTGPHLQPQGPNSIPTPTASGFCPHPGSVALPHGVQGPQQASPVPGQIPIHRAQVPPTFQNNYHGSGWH
UniProt Q8N6L1: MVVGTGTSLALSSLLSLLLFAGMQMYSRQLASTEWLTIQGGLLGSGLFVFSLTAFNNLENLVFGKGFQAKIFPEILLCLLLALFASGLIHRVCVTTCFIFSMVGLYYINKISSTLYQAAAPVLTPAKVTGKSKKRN

How the values were obtained:
Assay in all cases: log2 fold change, soluble protein after heating vs DMSO (PISA); higher = thermal stabilisation; K562 lysate, 10 uM; active = over 0.2 and 3.5 SD of the protein, either way, in both replicates (recomputed)
erlotinib = compound: C#Cc1cccc(Nc2ncnc3cc(OCCOC)c(OCCOC)cc23)c1 [erlotinib]
Method in brief: (§1)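 Quantification was by TMTpro 16plex LC-MS/MS with equalised channel sums, applied to the supernatant after 21,000xg for 90 min. Samples were crude K562 extract at 1 mg/mL protein in PBS pH 7.4 with 1 mM MgCl2, treated with 10 μM compound for 30 min, heated for 3 min across 48°C-58°C, pooled and brought to 0.5% NP-40 at 4°C. Values are log-two fold changes in thermal stability relative to solvent controls, from duplicates.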

[1] = compound: C/C(=N\NC(=O)C1=CC(=CC=C1)S(=O)(=O)N2CCOCC2)/C3=C(C=CC(=C3)Cl)O
Method in brief: as §1

[2] = compound: C1=CC(=CC=C1C2=NC3=C(N2)C=C(C=C3)C(=O)N)OC4=CC=C(C=C4)Cl
Method in brief: as §1

[3] = compound: C1=CC2=C(C=CC(=C2)/C=C\3/C(=O)NC(=NCC4=CC=CS4)S3)N=C1
Method in brief: as §1

[4] = compound: C1=CC2=NC=CN=C2C=C1/C=C/3\C(=O)NC(=O)S3
Method in brief: as §1

[5] = compound: C1=CC=C(C=C1)C2=NC(=C(N2)C3=CC=NC=C3)C4=CC(=C(C=C4)Cl)O
Method in brief: as §1

[6] = compound: C1=CC=C2C(=C1)C3=NNC4=CC=CC(=C43)C2=O
Method in brief: as §1

[7] = compound: C1CCN(C1)C(=O)NC2=CC=CC(=C2)NC3=NC=C(C(=N3)NCCC4=CN=CN4)Br
Method in brief: as §1

[8] = compound: C1CN(CCC1(CC2=CC=C(C=C2)Cl)N)C3=NC=NC4=C3C=CN4
Method in brief: as §1

IRAK-1-4 Inhibitor I = compound: C1COCCN1CCN2C3=CC=CC=C3N=C2NC(=O)C4=CC(=CC=C4)[N+](=O)[O-] [IRAK-1-4 Inhibitor I]
Method in brief: as §1

ibrutinib = compound: C=CC(=O)N1CCC[C@@H](n2nc(-c3ccc(Oc4ccccc4)cc3)c3c(N)ncnc32)C1 [ibrutinib]
Method in brief: as §1

[9] = compound: CC(=O)c1cnc2ccc(-c3cc(Cl)c(O)c(Cl)c3)nc2c1N[C@H]1CC[C@H](CN(C)C)CC1
Method in brief: as §1

ralimetinib = compound: CC(C)(C)Cn1c(N)nc2ccc(-c3[nH]c(C(C)(C)C)nc3-c3ccc(F)cc3)nc21 [ralimetinib]
Method in brief: as §1

[10] = compound: CC(C)(O)CC(=O)NCCn1ccc2ncnc(Nc3ccc(Oc4cccc(C(F)(F)F)c4)c(Cl)c3)c21
Method in brief: as §1

[11] = compound: CC(C)C1=C2N=C(C=C(N2N=C1)NCC3=CC=CC=C3)NCCCCCCN
Method in brief: as §1

[12] = compound: CC1=C(C2=C(C=C1)C(=O)C3=CC=CC=C3N2CCCN)C
Method in brief: as §1

[13] = compound: CC1=C(C=C(C=C1)NC(=O)C2=CC(=CC=C2)C(C)(C)C#N)NC3=CC4=C(C=C3)N=CN(C4=O)C
Method in brief: as §1

[14] = compound: CC1=C(C=C(C=C1)NC(=O)C2=CC(=CC=C2)N(C)C)NC(=O)C3=CC=C(C=C3)O
Method in brief: as §1

[15] = compound: CC1=CC=C(C=C1)SC2=C3C=C(SC3=CN=C2)C(=O)N
Method in brief: as §1

[16] = compound: CC1=C(C(CC(=O)N1)C2=CC=C(C=C2)C(F)(F)F)C(=O)NC3=C(C=C4C(=C3)C=NN4)F
Method in brief: as §1

Measured: log2 fold change

KDM5B isoform 2 (UniProt Q9UGL1)
inactive: erlotinib 0.07 | [1] 0.03 | [2] 0.006 | [3] -0.021 | [4] 0.031 | [5] 0.012 | [6] -0.074 | [7] -0.035 | [8] 0.099 | IRAK-1-4 Inhibitor I 0.011 | ibrutinib -0.075 | [9] -0.046 | ralimetinib -0.083 | [10] -0.165 | [11] -0.072 | [12] -0.129 | [13] -0.016 | [14] -0.095 | [15] -0.098

KYNU (UniProt Q16719)
inactive: erlotinib -0.016 | [1] 0.009 | [2] -0.058 | [3] 0.004 | [4] -0.002 | [5] -0.028 | [6] 0.011 | [7] -0.001 | [8] -0.018 | IRAK-1-4 Inhibitor I 0.014 | ibrutinib 0.046 | [9] 0.041 | ralimetinib 0.061 | [10] -0.055 | [11] 0.008 | [16] 0.048 | [12] 0.127 | [13] -0.029 | [14] -0.025 | [15] -0.025

KRIT1 (UniProt O00522)
inactive: erlotinib 0.071 | [1] 0.061 | [2] 0.043 | [3] -0.074 | [4] 0.177 | [5] 0.038 | [6] -0.034 | [7] -0.042 | [8] 0.043 | IRAK-1-4 Inhibitor I -0.073 | ibrutinib 0.089 | [9] -0.047 | ralimetinib 0.001 | [10] -0.02 | [11] 0.045 | [16] -0.041 | [12] -0.075 | [13] 0.045 | [14] -0.011 | [15] -0.095

LAPTM4B (UniProt Q86VI4)
inactive: erlotinib -0.048 | [2] 0.029 | [4] 0.119 | [5] -0.107 | IRAK-1-4 Inhibitor I -0.052 | ibrutinib -0.028 | ralimetinib -0.007 | [10] -0.161 | [11] -0.074 | [14] 0.03

KLHL7 (UniProt Q8IXQ5)
inactive: erlotinib -0.095 | [1] 0.062 | [2] 0.024 | [3] -0.162 | [5] 0.016 | [6] 0.29 | [7] -0.082 | [8] -0.012 | IRAK-1-4 Inhibitor I -0.05 | [9] 0.049 | ralimetinib 0.017 | [10] 0.015 | [11] 0.069 | [16] -0.108 | [12] -0.041 | [13] -0.075 | [14] 0.072 | [15] 0.029

KRAS isoform 2 (UniProt P01116)
inactive: erlotinib -0.038 | [2] 0.087 | [5] -0.071 | [7] -0.044 | [8] 0.015 | IRAK-1-4 Inhibitor I 0.033 | [9] 0.05 | ralimetinib 0.071 | [10] -0.078 | [11] -0.05 | [12] -0.011 | [13] -0.025 | [14] 0.004 | [15] 0.059

KDM4A (UniProt O75164)
inactive: erlotinib 0.044 | [1] -0.028 | [2] 0.01 | [3] 0.024 | [4] -0.008 | [5] 0.029 | [6] -0.04 | [7] -0.021 | [8] -0.03 | IRAK-1-4 Inhibitor I 0.018 | ibrutinib 0.062 | ralimetinib 0.038 | [10] -0.04 | [11] -0.018 | [16] 0.008 | [12] 0 | [13] 0.031 | [14] -0.037

KLHL22 (UniProt Q53GT1)
inactive: erlotinib 0.023 | [1] 0.12 | [2] -0.006 | [3] -0.123 | [5] -0.027 | [6] -0.031 | [7] 0.076 | [8] -0.034 | IRAK-1-4 Inhibitor I -0.032 | ralimetinib 0.035 | [10] -0.13 | [11] -0.003 | [12] -0.063 | [14] 0.01

LAMP2 isoform 2 (UniProt P13473)
inactive: erlotinib -0.035 | [2] -0.01 | [4] -0.038 | [5] 0.036 | IRAK-1-4 Inhibitor I -0.076 | ibrutinib 0.058 | ralimetinib -0.026 | [10] 0.028 | [11] -0.054 | [16] -0.08 | [13] -0.091 | [14] 0.05

KLHDC2 (UniProt Q9Y2U9)
inactive: erlotinib -0.087 | [1] 0.1 | [2] 0.024 | [3] 0.008 | [6] 0.055 | [11] 0.055 | [13] -0.091

KTN1 (UniProt G3V5Q0)
inactive: erlotinib 0.06 | [1] -0.16 | [2] 0.172 | [3] -0.105 | [4] -0.046 | [6] -0.182 | [7] -0.343 | [8] -0.025 | ibrutinib 0.015 | [11] -0.085

KRT13 (UniProt K7EMD9)
inactive: erlotinib 0.225 | [2] -0.083 | [4] 0.26 | [5] 0.112 | IRAK-1-4 Inhibitor I 0.156 | ibrutinib -0.157 | ralimetinib -0.17 | [10] -0.355 | [11] -0.014 | [14] 0.013

KIF16B isoform 2 (UniProt Q96L93)
inactive: erlotinib -0.02 | [1] -0.055 | [2] 0.085 | [3] -0.006 | [5] -0.016 | [6] 0.137 | [7] 0.226 | [8] -0.164 | IRAK-1-4 Inhibitor I 0.008 | ralimetinib 0.013 | [10] -0.05 | [11] -0.033 | [16] -0.007 | [12] 0.112 | [13] -0.005 | [14] 0.096

KHNYN (UniProt O15037)
inactive: erlotinib 0.036 | [1] 0.017 | [2] 0.077 | [3] -0.019 | [4] 0.02 | [5] -0.057 | [6] -0.104 | [7] -0.022 | [8] 0.004 | IRAK-1-4 Inhibitor I 0.019 | ibrutinib -0.001 | ralimetinib 0.15 | [10] -0.038 | [11] -0.031 | [16] -0.335 | [12] -0.126 | [13] 0.019 | [14] 0.005

KIF21A (UniProt H0YI78)
inactive: erlotinib -0.064 | [2] 0.088 | [4] -0.015 | ibrutinib -0.187 | [9] -0.073 | [11] -0.006 | [16] 0.107 | [12] 0.017 | [15] 0.031

Two records picked at random from the list so far, as already listed:
KIF21A (UniProt H0YI78)
inactive: erlotinib -0.064 | [2] 0.088 | [4] -0.015 | ibrutinib -0.187 | [9] -0.073 | [11] -0.006 | [16] 0.107 | [12] 0.017 | [15] 0.031

KRT13 (UniProt K7EMD9)
inactive: erlotinib 0.225 | [2] -0.083 | [4] 0.26 | [5] 0.112 | IRAK-1-4 Inhibitor I 0.156 | ibrutinib -0.157 | ralimetinib -0.17 | [10] -0.355 | [11] -0.014 | [14] 0.013

More results follow:

KLHL11 (UniProt Q9NVR0)
inactive: erlotinib -0.042 | [1] 0.017 | [2] 0.115 | [3] 0.035 | [4] 0.021 | [5] -0.023 | [6] -0.035 | [7] -0.195 | [8] 0.142 | IRAK-1-4 Inhibitor I 0.033 | ibrutinib -0.036 | ralimetinib -0.039 | [10] 0.052 | [11] 0.063 | [16] 0.011 | [12] 0.014 | [13] 0.072 | [14] -0.101

KMT2E (UniProt Q8IZD2)
inactive: erlotinib 0.03 | [1] 0.181 | [2] 0.18 | [3] -0.031 | [5] 0.05 | [6] -0.354 | [7] -0.093 | [8] 0.034 | IRAK-1-4 Inhibitor I 0.184 | ralimetinib -0.074 | [10] 0.007 | [11] 0.037 | [16] -0.052 | [12] 0 | [13] -0.011 | [14] -0.006

KLHL17 (UniProt Q6TDP4)
inactive: erlotinib 0.052 | [2] -0.071 | [4] -0.068 | [5] 0.076 | [7] -0.047 | [8] 0.098 | IRAK-1-4 Inhibitor I -0.135 | ibrutinib 0.032 | ralimetinib -0.124 | [10] 0.086 | [11] -0.101 | [14] -0.212

KLHDC10 (UniProt Q6PID8)
inactive: erlotinib 0.108 | [1] -0.117 | [2] 0.09 | [3] 0.023 | [4] -0.106 | [5] -0.033 | [6] -0.022 | [7] -0.069 | [8] 0.185 | IRAK-1-4 Inhibitor I 0.051 | ibrutinib -0.024 | ralimetinib -0.057 | [10] 0.411 | [11] -0.05 | [16] 0.019 | [12] 0.2 | [13] -0.007 | [14] -0.062

KRTCAP2 isoform 2 (UniProt Q8N6L1)
inactive: erlotinib 0.034 | [1] -0.032 | [2] -0.091 | [3] -0.095 | [5] -0.022 | [6] -0.03 | [7] 0.007 | [8] 0.041 | IRAK-1-4 Inhibitor I 0.095 | [9] 0.033 | ralimetinib 0.03 | [10] -0.304 | [11] -0.008 | [16] 0.07 | [12] -0.125 | [13] 0 | [14] -0.057 | [15] 0.012

KDM4B (UniProt O94953)
inactive: erlotinib -0.013 | [1] -0.213 | [2] 0.057 | [3] -0.041 | [5] -0.002 | [6] 0.085 | [7] -0.126 | [8] -0.018 | IRAK-1-4 Inhibitor I 0.017 | ralimetinib 0.044 | [10] -0.056 | [11] 0.009 | [16] -0.015 | [12] -0.033 | [13] -0.018 | [14] 0.007
